Test results published in PMC10163288.
Some of the results follow.

B1: il10ra_site1_normal_mot_HHH_b2_00479_000000091_0001_1_12_H_._HHH_b2_01030_af2_0001_0000300029_0000002_0 (protein)
chain: SSSSDEVTDELYKLIREALELRANGNPEEAREILKEAEELAEENNNFTFLFAVRLVLRDLNSSSS
B2: il10ra_site1_sap_25_mot_HHH_b2_03220_af2_000000223_0001_23_40_H_._HHH_b2_06465_0001_0000200025_0000001_0_0001 (protein)
chain: DAHERAKEVAELLREDPEEALEFLEELVERTGDPTLEFMLMALRLMLENNDEEALEALIDLFQRQ
B3: il10ra_site1_sap_27_mot_HHH_b2_02053_af2_000000006_0001_3_19_H_._HHH_b1_03549_0001_0000100010_0000001_0_0001 (protein)
chain: SSSSDRNERVWEILKRILEAIADGDEEEARELLEEAQKLAEEANNWVARFSIRLLERRLELSSSS
B4: il10ra_site1_normal_mot_HHH_b1_03859_af2_000000004_0001_44_57_H_._HHH_b2_00423_0001_0000200004_0000001_0_af2pred_0001 (protein)
chain: SSSSSSEEVVRRLLRAAEFILERGNPEKAKLALRLARFIAERANDPELEELVEEVQERVRSSSSS
B5: il10ra_site1_sap_16_mot_ems_p1-15H-GBL-16H-GABBL-16H_0048_0001_0001_0001_af2_000000267_0001_19_34_H_._5d0551e3c4357af680d60aaa850e4cea_0001_1_0001_0000200002_00 … (protein)
chain: SSSSDEEERELVEAAVRMAKQVSERVVEFLLMAAEMLAEELNDPELRELVEELREYLEELSSSSS
B6: il10ra_site1_sap_13_mot_HHH_b2_06664_af2_000000263_0001_19_36_H_._HHH_b1_05947_0001_0000200013_0000001_0_0001 (protein)
chain: DEEKEEELIELIAEAMGVPPELVREAIKQLERQNGDPRLALEAIARAAWASAPPELREELERALK
B7: il10ra_site1_sap_20_mot_HHH_b1_03314_af2_000000278_0001_42_55_H_._ems_3hM_198_af2_0001_0000400014_0000001_0_0001 (protein)
chain: SSSSSDAQRVWELIREAFEALRQGDEEEARELLEEAEEIAEEANNPVMESVLRLLKKLIDSSSSS
B8: il10ra_site1_normal_mot_HHH_b2_02116_af2_000000165_0001_41_55_H_._HHH_b2_02224_af2_0001_0000100003_0000001_0 (protein)
chain: SSSSSEEEHLVRAALRLAREALREGNPRSARLLVESAALLAEENNNEELLEEAERLREELESSSS
B9: il10ra_site1_sap_22_mot_HHH_b1_05056_000000217_0001_1_20_H_._HHH_b2_05482_0001_0000200018_0000001_0_0001 (protein)
chain: SSSSSDVEELLEEAEKLIEDGNPEEALRVLQEALEAIYRRGDEELLQELWELLKELVERGSSSSS
B10: il10ra_site1_sap_18_mot_HHH_b2_04275_000000272_0001_20_36_H_._HHH_b1_07345_af2_0001_0000300023_0000001_0_0001_af2pred_dldesign_0_af2pred (protein)
chain: EKEKLEKIKKLLEELDTPHARALLYLIDQLESRGYKPSEIIEALKNAAELLGDEEILKAIDEALK
B11: il10ra_site1_normal_mot_HHH_b2_03220_af2_000000223_0001_23_40_H_._HHH_b1_05792_af2_0001_0000100001_0000001_0 (protein)
chain: SSSSSSEENEEIWEIIRRALHIDDPEEAHELLERARELAEEANSEVLLFTIRYLLRQLEGSSSSS
B12: il10ra_site1_normal_mot_126ace9b790e630c13bc3545a3f0f279_0001_af2_000000260_0001_15_29_H_._HEEHE_2663_0001_0000500026_0000001_0_af2pred_0001 (protein)
chain: DEEEIELAIRYLIEFNANPPRVEISVENNEIEVTVEGTDEAARQAQIAVEAFARLKGIPVNVEER
B13: il10ra_site1_sap_17_mot_HHH_b2_04681_000000155_0001_43_57_H_._HHH_b2_07038_af2_0001_0000400013_0000001_0_0001_af2pred_dldesign_0_af2pred (protein)
chain: SSSSSSSDPERILALIRRALEEEDPEKARELLEEALRLAKEAGNEVAIRAAEYLLRQVSSSSSSS
B14: il10ra_site1_sap_24_mot_HHH_b2_00479_000000091_0001_1_12_H_._HHH_b2_07120_0001_0000300019_0000001_1_0001_af2pred_0001 (protein)
chain: SSPEEAEKLLEEAEELARKQNDEEAHEIVEQMKRLLELAEELNNEQALRVILFLARALAEELESS
B15: il10ra_site1_normal_mot_HHH_b2_04945_000000076_0001_1_19_H_._HHH_b2_02643_0001_0000100001_0000002_0 (protein)
chain: SSSTDEVFKFVREVLEEAARLLREGNPEEAERLLEEAEKLAQELGNLALRFSLEHLLRVIRSSSS
B16: il10ra_site1_sap_17_mot_1f0bf248c09923a0581b66a675a8b92c_0001_af2_000000190_0001_52_65_H_._HHH_b2_04143_0001_0000200022_0000001_0_0001 (protein)
chain: SSSSDEEEERLEKLLEEAKELIEEGNPREALEVLLEAVRLAMKLGDEEALQEIWRLVQKLKSSSS
B17: il10ra_site1_normal_mot_HHH_b1_01082_af2_000000031_0001_3_19_H_._HHH_b1_04169_0001_0000100007_0000001_0 (protein)
chain: SSSSDESEEILEEARELIERLLEEGNYEEAYKVLKRAIELLVELGDDEALQELLEFFQRRSSSSS
B18: il10ra_site1_normal_mot_HHH_b1_05088_af2_000000046_0001_20_36_H_._HHH_b2_02810_0001_0000200011_0000002_0 (protein)
chain: SSSSDEEVREEVERLLEEAKEIEDAEEAYKALRRAIELAAENQDKELLELILRVIREWLNSSSSS
B19: il10ra_site1_normal_mot_HHH_b2_04680_000000215_0001_1_16_H_._HHH_b1_03111_0001_0000500024_0000001_1 (protein)
chain: SSSSSSDEREAYELIRRAFEIEDPEEARELLREALELAEEAGNFALRFAIRQLLRQLESSSSSSS
B20: il10ra_site1_sap_18_mot_HHH_b1_01481_000000287_0001_1_20_H_._HHH_b2_00170_0001_0000300039_0000001_0_0001 (protein)
chain: SSSSSQEEELVEAAIRMLEQAFKWGDPERAKAMFWAARFVAEEINDDELRREIEEVYEELSSSSS
B21: il10ra_site1_sap_16_mot_HHH_b2_07873_af2_000000172_0001_1_19_H_._HHH_b1_07132_0001_0000300020_0000001_0_0001 (protein)
chain: SSSSDATHEVYKLSRRVMELLAEGNKEEAEELLEEIRELVEEAGSQVMEFILELLKRAIEHSSSS
B22: il10ra_site1_sap_21_mot_HHH_b2_04679_000000194_0001_21_38_H_._HHH_b2_04966_0001_0000200027_0000001_0_0001 (protein)
chain: SSSSSDNHEIYRLSREALELFANGNPEEAEKVLEEAERLAEELGNRVLLFALRRLARAVNSSSSS
B23: il10ra_site1_normal_mot_HHH_b2_03328_af2_000000127_0001_1_19_H_._HHH_b1_02422_0001_0000200014_0000002_0 (protein)
chain: SSSDVEERVKELLERIEEAVEEGDARKLYELSRLIAELAFEYNNPEANRVLREAAELVARRLSSS
B24: il10ra_site1_sap_18_mot_ems_3hM_3073_000000042_0001_1_18_H_._HHH_b1_01029_0001_0000100003_0000002_0_0001 (protein)
chain: SSSDENQRALELSQKAFRLALRGNPEEAREVLEEALELAEEGGNERLAEQIRILLETLEAGSSSS
B25: il10ra_site1_normal_mot_HHH_b1_02809_af2_000000277_0001_40_57_H_._HHH_b2_07759_af2_0001_0000200012_0000002_0 (protein)
chain: SSSSSSEDEKYIELALKFARALEDKEAARLLARAALEIARRAGDEELFEKVEEFLEELNSSSSSS
B26: il10ra_site1_sap_22_mot_HHH_b1_07527_000000076_0001_1_15_H_._HHH_b1_07772_0001_0000100002_0000002_0_0001 (protein)
chain: SSSSSDRRQEVLRLSLRAFRLALRGNPEEAKEVLEEALELAEEGNDERLFEMLRRLLETLSSSSS
B27: il10ra_site1_sap_18_mot_HHH_b1_01975_000000257_0001_1_17_H_._HHH_b1_07669_af2_0001_0000400016_0000002_0_0001_af2pred_0001 (protein)
chain: SSSSDDQEKALERLLRAAKELLERGNPEFAKRALRFAEHAAKAANDHELLEEIRELLEEVTSSSS
B28: il10ra_site1_normal_mot_HHH_b2_06979_000000158_0001_42_57_H_._HHH_b1_03932_af2_0001_0000300016_0000002_1_af2pred_0001 (protein)
chain: SSSSSREELIRRAFELIKRAAEISDEEEVERLLEEARELAEEAGNEELVRAIEFREKALLSSSSS
B29: il10ra_site1_normal_mot_HHH_b1_00682_000000211_0001_1_20_H_._HHH_b2_01840_0001_0000100011_0000002_0 (protein)
chain: SSSSDVEERVEELLEQARELLEKGNPDEAYKLLREAVELASERNDPELQRLVVEVSRELFSSSSS
B30: il10ra_site1_normal_mot_HHH_b1_02708_af2_000000019_0001_23_39_H_._HHH_b2_02879_af2_0001_0000400016_0000002_0_af2pred_0001 (protein)
chain: SSSSNEEREVARLLLRVIELYANGNPEEAKEVLKEAEELAEELGDEELRRAVEIVKRFVENSSSS
B31: il10ra_site1_sap_28_mot_HHH_b2_07006_000000108_0001_1_19_H_._HHH_b2_00906_0001_0000300042_0000001_0_0001_af2pred_0001 (protein)
chain: SSSSDEEELEEIARKIVEELEKEYNLSEEERKLLELLARLAVLAGASPERIEKSLRAAARGSSSS
B32: il10ra_site1_normal_mot_HHH_b1_04065_000000255_0001_41_56_H_._HHH_b2_02179_0001_0000400021_0000001_0 (protein)
chain: SSSSSEHREEVERLLEEAEESDDPREVAQLLFEALRRAWEARDPELLKEVLQVAIELQHLLSSSS
B33: il10ra_site1_normal_mot_HHH_b2_04275_000000272_0001_20_36_H_._HHH_b1_00803_af2_0001_0000600054_0000001_0 (protein)
chain: SSSSDESQRVYELLRRASEAEHEGNPEEAEELLEEAEKLAEELNNHVLLATIRFLLKLINSSSSS
B34: il10ra_site1_sap_18_mot_HHH_b2_03220_af2_000000223_0001_23_40_H_._HHH_b2_05553_0001_0000200016_0000001_0_0001 (protein)
chain: SSSSSLAERVQELSREAVELDHEGNPEEAEELLEEAEEIAREANNDVLLMQVEYLLRHVGSSSSS
B35: il10ra_site1_normal_mot_HHH_b2_00475_000000107_0001_44_57_H_._HHH_b1_06647_af2_0001_0000400020_0000002_0 (protein)
chain: SSSSEEREVVELIFRAVRLLANGNPEEAEKVLERAEELAKELNDEELQRYVEIALHFVRSHSSSS
B36: il10ra_site1_sap_12_mot_HHH_b1_00682_000000235_0001_1_20_H_._HHH_b1_06101_0001_0000200013_0000001_0_0001 (protein)
chain: SSSSDELRRAAHLSLRAFRLALRGNPEEAREVLEEALRLAEEAGDERLARIIERILRALKSSSSS
B37: il10ra_site1_normal_mot_8756ee2cf497b5429c717dfc0c0bcfd6_0001_000000186_0001_1_13_H_._HHH_b1_03712_af2_0001_0000400016_0000001_0 (protein)
chain: SSSSNELERVYELIRLLAELLRRGDEEEFEEVSEEVKKLVEELNNDVLRAVVEYLQRHLESSSSS

molecular target: il10ra, Q13651; test: yeast display titration

Apparent Kd, inactive:
B1 no binding seen
B2 no binding seen
B3 no binding seen
B4 no binding seen
B5 no binding seen
B6 no binding seen
B7 no binding seen
B8 no binding seen
B9 no binding seen
B10 no binding seen
B11 no binding seen
B12 no binding seen
B13 no binding seen
B14 > 2.81 µM
B15 no binding seen
B16 no binding seen
B17 no binding seen
B18 no binding seen
B19 no binding seen
B20 no binding seen
B21 no binding seen
B22 no binding seen
B23 no binding seen
B24 no binding seen
B25 no binding seen
B26 no binding seen
B27 no binding seen
B28 no binding seen
B29 no binding seen
B30 no binding seen
B31 no binding seen
B32 no binding seen
B33 no binding seen
B34 no binding seen
B35 no binding seen
B36 no binding seen
B37 no binding seen

Reprinted at random: 2 entries already listed
Apparent Kd, inactive:
B29 no binding seen
B2 no binding seen
